According to patent publication US20060051764:
For some of these results: A negative result means that nothing was seen under these conditions. For some of these results: Where cells or extracts were used, other partners may take part.

Chains of the proteins cited; added tags and fusions are not shown. Where a name states a change or a piece, a line headed by the entry shows the natural chain unless it says otherwise. Chains listed by the source or under a name are the forms on record and can include a tag or linker.
UniProt P22415: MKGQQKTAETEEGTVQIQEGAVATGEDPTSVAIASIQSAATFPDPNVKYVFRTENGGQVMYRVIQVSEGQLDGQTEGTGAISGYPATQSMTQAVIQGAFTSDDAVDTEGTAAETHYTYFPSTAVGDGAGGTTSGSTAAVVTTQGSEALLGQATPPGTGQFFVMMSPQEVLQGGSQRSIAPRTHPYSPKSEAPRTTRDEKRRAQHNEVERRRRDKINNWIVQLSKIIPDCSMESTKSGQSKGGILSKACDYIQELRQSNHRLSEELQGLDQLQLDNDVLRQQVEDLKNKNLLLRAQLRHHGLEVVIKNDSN
USF complexes (USF-1/USF-2) in HT29 nuclear extract (Homo sapiens), one chain, as listed by the source, chain 1 of 2: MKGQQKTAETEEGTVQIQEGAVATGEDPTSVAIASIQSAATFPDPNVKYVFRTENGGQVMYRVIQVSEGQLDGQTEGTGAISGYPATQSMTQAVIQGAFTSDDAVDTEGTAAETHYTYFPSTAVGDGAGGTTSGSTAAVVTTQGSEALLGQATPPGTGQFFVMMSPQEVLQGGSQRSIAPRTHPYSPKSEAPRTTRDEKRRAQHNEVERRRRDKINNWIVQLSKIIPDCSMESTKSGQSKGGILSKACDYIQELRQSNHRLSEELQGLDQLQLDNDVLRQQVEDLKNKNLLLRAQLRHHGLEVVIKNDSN
USF complexes (USF-1/USF-2) in HT29 nuclear extract (Homo sapiens), one chain, as listed by the source, chain 2 of 2: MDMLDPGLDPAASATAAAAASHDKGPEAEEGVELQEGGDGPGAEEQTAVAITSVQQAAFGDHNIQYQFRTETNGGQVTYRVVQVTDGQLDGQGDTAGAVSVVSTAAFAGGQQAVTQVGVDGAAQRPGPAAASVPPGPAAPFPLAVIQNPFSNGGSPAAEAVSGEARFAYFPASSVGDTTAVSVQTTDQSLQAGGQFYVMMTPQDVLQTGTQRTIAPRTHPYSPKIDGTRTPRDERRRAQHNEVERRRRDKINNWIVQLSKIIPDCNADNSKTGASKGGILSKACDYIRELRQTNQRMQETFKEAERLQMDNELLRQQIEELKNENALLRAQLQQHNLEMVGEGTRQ

Assays:
[1] = tested on: USF complexes (USF-1/USF-2) in HT29 nuclear extract (Homo sapiens); assay: EMSA; conditions: HT29 nuclear extract 2.5 ug; protein in an extract; label: 32P
[2] = molecular target: USF-1 unphosphorylated (Homo sapiens) (UniProt P22415); assay: EMSA; conditions: purified recombinant protein, protein details: N-terminal 6xHis (pProEX-HTb, E. coli)
[3] = tested on: USF complexes (USF-1/USF-2) in HT29 nuclear extract (Homo sapiens); assay: competition with a labelled probe; conditions: unlabeled competitor removes two USF bands; protein in an extract; label: 32P when used as probe

Sequence | binding result [1] | binding result ([2]; only phosphorylated form binds, label: 32P) | binding result [3] | binding result ([2]; consensus probe, sequence taken from the listed USF-1 specific oligonucleotide, label: 32P when used as probe)
CCGCGCCACTTGGCCTGCCTCCGTCCCG (double strand) [TS wild-type tandem repeat (R)] | binds | no binding |  | 
CACCCGGTCACGTGGCCTACACC (double strand) [USF-1 consensus oligonucleotide] |  |  | binds | no binding
